Test results as given in the supplement of paper PMC5949888.
± gives the standard deviation of the averaged measurements. Most values lie at the floor of the assay. Slopes are relative: functional sequences can read slightly below zero.

The substances below were run on Saccharomyces cerevisiae PS128 hsf1 delta, HSF1(1-493) fusion (assay: growth estimate (transactivation domain function in HSF1 fusion, heat-shock survival) (a.u. (slope of normalised read count over time)); higher = stronger growth at 37°C, i.e. more transactivation activity). Details: library: random library.

| Substance | growth estimate |
| --- | --- |
| SSSYLLPVHFVVLGYIIRRR | < -0.25 |
| VHTLYAVLDTGAKPDLIRSY | < -0.25 |
| KHIRLEVISLFCFYGGVHRP | < -0.25 |
| RRRSPIPFVFYQYGRLLQPQ | < -0.25 |
| QENV | < -0.25 |
| CQHMDRR | < -0.25 |
| SPGTSGYSESCSKVQLSRLA | < -0.25 |
| SVPEKVQQDEHRLL | < -0.25 |
| TADLQGPPNVRLPESYLTEW | -0.244 |
| GGFRWVDLEMDRTRAECCS | < -0.25 |
| TSSNVSI | -0.246 |
| LMSQPTAGCFPIRD | < -0.25 |
| GVCGREDSRIRVI | < -0.25 |
| LWREREGMVSSTLHV | < -0.25 |
| IVRVGLARAVDLSLRGP | < -0.25 |
| SVSVTSFPGSN | < -0.25 |
| LGMNINRSLDVYHRVRWCLR | < -0.25 |
| YIGPLWVASYGTPKPCVLGR | < -0.25 |
| GFSPPEQTVRRPPCRLSLGD | < -0.25 |
| YEHKYWRDYC | < -0.25 |
| YRS | < -0.25 |
| KGQPMTVGLRLMPIRNPLVV | < -0.25 |
| PRAVNL | < -0.25 |
| FGATIRRSIGNG | < -0.25 |
| RLCLTASRCNKNMSGDRGAV | < -0.25 |

| Substance | growth estimate |
| --- | --- |
| FQTHSSPVQKCSDASVKQPE | < -0.25 |
| YQQDYIRA | < -0.25 |
| VVMQVYPNQVEAGYYSV | < -0.25 |
| NDPRKFESLLLH | < -0.25 |
| AVPLRAIIMVL | < -0.25 |
| VSSVDSYVGSLLFHKKPEDE | < -0.25 |
| PGDGMGLAHSV | < -0.25 |
| GTHSVRTRQRPERCQWSCPV | < -0.25 |
| PWC | < -0.25 |
| HSGCSDR | < -0.25 |
| ATVVST | < -0.25 |
| GKGHRGLYFASDKRRPRSSP | < -0.25 |
| FYKSGIRRAINS | < -0.25 |
| DRPSS | < -0.25 |
| KVTQYGDVISVDIKLRH | -0.246 |
| VELYGKGLIA | < -0.25 |
| CGHRV | < -0.25 |
| KNDRVDIE | -0.243 |
| LFVGAHHS | -0.243 |
| VSP | < -0.25 |
| DRNGNGPKVF | < -0.25 |
| RSMVK | < -0.25 |
| RRQV | < -0.25 |
| YTTVEYIWLRIWILR | < -0.25 |
| TPEGGNSSSAVRPRMYSLNG | < -0.25 |

| Substance | growth estimate |
| --- | --- |
| GVSD | < -0.25 |
| LIISNVAVVDKGIELGERIG | < -0.25 |
| ACKDILQSKLETPNFKSPNC | < -0.25 |
| VTSISTLTNAQGVTRERTVQ | < -0.25 |
| CHREFAERHGRVRASVRNIA | < -0.25 |
| SGVAGVGSKHRQELGFIPLR | < -0.25 |
| CICIASSRTRPGLSTRGNSG | < -0.25 |
| LILSTDGSNRSHHPS | < -0.25 |
| AIGQNGVDGGPSACWLLGHT | < -0.25 |
| LDASAYGIVL | < -0.25 |
| GKSPIVC | < -0.25 |
| SRCVCSDAIPGVRFSTPLYL | < -0.25 |
| QCRKGATSGASGWCRGYVLG | < -0.25 |
| KSGRKEDCRLTKKAKQRKTA | < -0.25 |
| CGITSEPILASYDVMGTPTI | < -0.25 |
| MLEQFLGQTHALGETAAVVV | < -0.25 |
| RVSTELKSYSSRSAGASARV | -0.197 |
| RRRFIVGLNFALCCRFTLVR | < -0.25 |
| QYLGSNIFFEFQYGWELVSN | < -0.25 |
| WNELTERTFPGTEGE | < -0.25 |
| RIGIGSGVRSNSANVHMPRS | < -0.25 |
| LYDSRDTSICDCRPLTPTPP | < -0.25 |
| VCHR | < -0.25 |
| STLGLLPTLDPRMVPALDAI | < -0.25 |
| KCADPVFLCQLGWCRHFTRG | < -0.25 |

| Substance | growth estimate |
| --- | --- |
| LNG | < -0.25 |
| MYLFTTADYGRLLLLDYASL | < -0.25 |
| GFSPTLRPVNPRRNKYVVRS | < -0.25 |
| LHATIVLKSAAGSYLPILWL | < -0.25 |
| RDWCCCLRNDIGYGGKYRSR | < -0.25 |
| KFTRVAAPSAWQDGQRILSE | < -0.25 |
| RDVGVQGRKQVVTVTLM | < -0.25 |
| LVI | -0.248 |
| TRYDLFEDL | 0.0285 |
| DLGYECAETWIQCISVWVSS | < -0.25 |
| DSLHAIGGLG | < -0.25 |
| TSFAMLRGARSITSQSIF | -0.0984 |
| RPDVGLQQER | < -0.25 |
| GRLIYF | < -0.25 |
| VMRSVRDHRWIDRMDIIFHL | < -0.25 |
| GEEV | < -0.25 |
| PSFKDPAIRGTLPT | < -0.25 |
| SNVS | < -0.25 |
| LASPSRDTSALT | < -0.25 |
| GESYVLHMIRGFLRMLYHHR | < -0.25 |
| MPVLSGVVKRRSADAPSVT | < -0.25 |
| FAENQDGCSASAHPHWMHGS | < -0.25 |
| LNARGDMPVSFSSAG | < -0.25 |
| RRIDSFFSL | < -0.25 |
| LPIIEGSRGALCSVPKTNA | < -0.25 |

A different layout for part of the listing above.
Substance	growth estimate
FQTHSSPVQKCSDASVKQPE	< -0.25
CGHRV	< -0.25
LVI	-0.248
GEEV	< -0.25

(listing goes on)

| Substance | growth estimate |
| --- | --- |
| DGNLHLGNGANSRKLRGK | < -0.25 |
| SHDSQCTQFAR | -0.246 |
| YVCVERTIRPRR | < -0.25 |
| VCGIRAVPQARARCCLALLK | < -0.25 |
| RCANRGARPSVSGECFVRLV | < -0.25 |
| GGKATCFLGIYKANQQICRD | < -0.25 |
| SSPVPHLPITDSAWSLIFSA | < -0.25 |
| FWVVPGKPWEITRQTFIDPN | < -0.25 |
| TRVEFFVHGVRMFLKRSS | < -0.25 |
| IVRNFG | < -0.25 |
| GLVDGMSGNLSPLVSGSSQR | < -0.25 |
| LCNTDWYYRFRRPRIAGRHE | < -0.25 |
| NRCLQFG | < -0.25 |
| EVRTNVQISKCFR | < -0.25 |
| IYLRLRLLPAL | < -0.25 |
| EQE | < -0.25 |
| RKAMGRC | < -0.25 |
| GDNVHLRSVWLWCHVFGRR | < -0.25 |
| NTRRPRLTYWHLGYDAQ | < -0.25 |
| ETSWSGCADCALISHVQPPR | < -0.25 |
| RGDVRREIDHLS | < -0.25 |
| GPVLVGPGFSGSVARTQSGR | < -0.25 |
| SFRSKINPIALQLGNRKSTA | < -0.25 |
| LTRVPRRVHEGTTCTTESVP | < -0.25 |
| RGGPSSRTIYMLKFGPWAVK | < -0.25 |

| Substance | growth estimate |
| --- | --- |
| DLMAAQKVDGVRCSIVILIP | < -0.25 |
| VTRRRREGSRFGTRDSRIWS | < -0.25 |
| ALPQIGQGPLTAARLKVMEE | < -0.25 |
| PVSIPKWKQSGTELAVGSKL | < -0.25 |
| VRYAMDGTLVARIAAGIVYQ | < -0.25 |
| TSFHILREPATLRSPALFAS | < -0.25 |
| NVTGEIRPDLGERSLTRGAK | < -0.25 |
| TVSSGQYFLSNWTARLGP | < -0.25 |
| PVSKG | < -0.25 |
| KRSCLYRVVSRTWSSGVTTI | < -0.25 |
| GNNYLKPLGATGSN | < -0.25 |
| QGR | < -0.25 |
| AIKRDRLVKYEDSLSVLGL | < -0.25 |
| TTCQHLLSSG | < -0.25 |
| VSVGNLLVPRMRPIRNTRRN | < -0.25 |
| DGSRRVKYAQ | < -0.25 |
| MRA | -0.246 |
| NFRTTRSRLPWYSSKNIART | < -0.25 |
| ELQCTSRIATMFISPSNAAA | 0.215 |
| PEHLKASRTRVRGLYALIEH | < -0.25 |
| CAVEQMVEEEKKDGRKCGEF | < -0.25 |
| TNISLQ | < -0.25 |
| DPGS | < -0.25 |
| WGGVTLGWVRVSRRTE | < -0.25 |
| MGLLHPKLTRREGKLWSLAP | < -0.25 |

| Substance | growth estimate |
| --- | --- |
| RIRYRADVALGLIRAVARVQ | < -0.25 |
| LASDCVTFVEERSRRIGARP | < -0.25 |
| SPPETLLNWMSCNVLGGSIC | -0.234 |
| GSLSYFPAVPEGSSGTLGAG | < -0.25 |
| IHC | < -0.25 |
| TKMQQVQPSVCFRRQSSGSL | < -0.25 |
| RVSGSVQ | -0.246 |
| SEE | -0.2486 ± 0.0024 |
| PSSNQEGFVFTHRRMLHTGP | < -0.25 |
| KRGSWNAPVHYGRRGLVQSK | < -0.25 |
| PVWQRKEQEVFLGDVIRVS | < -0.25 |
| ANSR | < -0.25 |
| EARRGKMGSNTPHGTIGSPN | < -0.25 |
| SGLTCLCCA | < -0.25 |
| TFEAKEKVQSASYADN | < -0.25 |
| NELKGYGSK | < -0.25 |
| ETCA | < -0.25 |
| ARASLRRDLIRGGTEAHNMV | < -0.25 |
| PPPLLRPFRFRNMPLLPG | < -0.25 |
| ACV | -0.0632 |
| GLDACPL | < -0.25 |
| YYIVVEARRRY | < -0.25 |
| TCLGSLALRGKLHAWGRPVR | < -0.25 |
| YNYR | < -0.25 |
| CVDPFIADDGSIPCHIRSVQ | -0.25 |

| Substance | growth estimate |
| --- | --- |
| IYLFTIRGSTVLELQQTGRF | < -0.25 |
| KIGL | < -0.25 |
| AGSGP | -0.246 |
| VRWVASGGG | < -0.25 |
| GDGFQSHDRSR | < -0.25 |
| SKCPCPRTGDSL | < -0.25 |
| PMIRTRQMVSGPGTRED | < -0.25 |
| MYG | < -0.25 |
| DISSFV | < -0.25 |
| QSNDIVVLYGNHTSHQGHQW | < -0.25 |
| PCTVRR | < -0.25 |
| LGAKWDCRMSNQ | < -0.25 |
| VHGDTPLPKVSLST | < -0.25 |
| LIRVRRSIALAWGRVYTIRN | < -0.25 |
| VVHTQVEKA | < -0.25 |
| SVGTLSPVHSGVGPGYSYSA | < -0.25 |
| CPLHANGIRPKGDTVTNMVQ | < -0.25 |
| AVTRIVESDNWPE | < -0.25 |
| LGYQFDILELYGPSTSSFS | 0.793 |
| VGAFAQRDGPKWCC | < -0.25 |
| RAVRNDGS | < -0.25 |
| VSETYDNGTWYSGNTPTGCL | -0.224 |
| VCRFDYGAHDGTE | < -0.25 |
| PSKKYEMRPLTGGYAD | < -0.25 |
| ILTN | < -0.25 |

Quoted at random: 6 records from the list, in no set order.

| Substance | growth estimate |
| --- | --- |
| DISSFV | < -0.25 |
| GDGFQSHDRSR | < -0.25 |
| VSETYDNGTWYSGNTPTGCL | -0.224 |
| SVGTLSPVHSGVGPGYSYSA | < -0.25 |
| LGAKWDCRMSNQ | < -0.25 |
| PSKKYEMRPLTGGYAD | < -0.25 |
